These results are taken from PubChem BioAssay AID192 (DTP/NCI, 2004).

For this assay, the system named is BDF1 mice, B16 melanoma ip, median survival T/C. The assay is described as follows: NCI In Vivo Anticancer Drug Screen. Data for tumor model B16 Melanoma (intraperitoneal) in B6D2F1 (BDF1) mice. As to conditions: T/C endpoint: median survival time, schedule: Q01DX009 (ip), higher T/C = longer survival. In short, it runs like this: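 In this screen, activity was judged from survival or tumor size in treated versus vehicle-treated tumor-bearing mice, reported as T/C.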

Where [1] appears, read: dose: 200.0 mg/kg/injection, vehicle: saline.
Where [2] appears, read: dose: 400.0 mg/kg/injection, vehicle: saline.

Molecules are shown by their SMILES. The list is a part of this screen's results and no random one: it is rich in T/C values a quarter to a half above the control, in often repeated tests (any T/C) and in doses without a T/C. Further doses and runs are listed elsewhere. T/C gives the treated animals as a percentage of the vehicle group. Some doses have a count of surviving animals in place of a T/C: the source files T/C as zero there, which appears to mark a toxic dose or a test without result, not a measured value. Some doses without a T/C left all or most animals alive at the check, yet need not have been tolerated: the source hardly ever lists a survival T/C far under the control, and the zero likely stands for such cases as well. Counts of survivors are from the toxicity check (mostly the fifth day) where no day follows; animals may have died later. Schedules are NCI's codes, read here as Q, the interval in days (D) or hours (H), X, the number of doses. Where survival is the endpoint, the PubChem record calls one and a half times the control and up active, and a quarter to a half above the control has no call in these data; cut-offs in other NCI protocols can differ.

As for `CCCCNC(=O)Nc1c(C)cccc1C`, the survivor count (dose: 400.0 mg/kg/injection, vehicle: gum acacia) is 10 of 10.

As to `CS(=O)(=O)OCCCCCCCCCOS(C)(=O)=O`, the survivor count (dose: 200.0 mg/kg/injection, vehicle: Klucel (hydroxypropylcellulose) (HPC)) is on record as 10 of 10.

For `CN(C)CCCN1Cc2ccccc2Cc2ccccc21`, the survivor count under setting [1] is recorded as 0 of 10 and the survivor count under setting [2] is reported as 0 of 10.

As to `CCN(CC)CCOC(=O)c1ccc(N)cc1`, the survivor count is reported as 2 of 10 under setting [1] and 0 of 10 under setting [2].

With `CS(=O)(=O)OCCN(CCOS(C)(=O)=O)c1ccc(N=O)cc1`, the T/C (dose: 0.05 mg/kg/injection, vehicle: saline) is 142 % of control; the T/C (dose: 0.13 mg/kg/injection, vehicle: saline, evaluated on day 45) is 127 % of control; the T/C (dose: 0.13 mg/kg/injection, vehicle: saline, evaluated on day 60) is 131 % of control; the T/C (dose: 0.19 mg/kg/injection, vehicle: saline with Tween-80) is 140 % of control; the T/C (dose: 0.2 mg/kg/injection, vehicle: saline) was 126 % of control; the T/C (dose: 0.3 mg/kg/injection, vehicle: saline) was 141 % of control. For the same compound, the survivor count by setting is: (dose: 0.37 mg/kg/injection, vehicle: saline with Tween-80) 10 of 10; (dose: 0.75 mg/kg/injection, vehicle: saline with Tween-80) 10 of 10; (dose: 0.75 mg/kg/injection, vehicle: saline) 5 of 6; (dose: 1.5 mg/kg/injection, vehicle: saline) 3 of 6; (dose: 3.0 mg/kg/injection, vehicle: saline) 0 of 6; (dose: 6.25 mg/kg/injection, vehicle: saline) 6 of 6. Besides, the survivor count is, setting by setting: (dose: 12.5 mg/kg/injection, vehicle: saline) 2 of 6; (dose: 25.0 mg/kg/injection, vehicle: saline) 0 of 6; (dose: 100.0 mg/kg/injection, vehicle: saline) 0 of 6; under setting [1], 0 of 6; under setting [2], 0 of 6.
